## Percent effect of library compounds

Mtb cholesterol medium: 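Whole-cell growth test on Mycobacterium tuberculosis, read after 4 days in a medium based on cholesterol and the lipid DPPC; the read-out is not stated. Concentration: 50 µM. The record gives no direction; compounds that gave an IC50 in retests scored well above the rest, so higher reads as more growth inhibition. Of about 69,000 compounds tested this way, about 370 (0.54%) reached 50% or more in at least one test.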
Mtb glucose medium: 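Phenotypic screen: M. tuberculosis growth, glucose 7H9 medium, 3 days; the read-out is not stated. Concentration: 50 µM. Direction is inferred from retests: higher values go with more growth inhibition. Size under these conditions: about 69,000 compounds, about 760 of them at 50% or above in at least one test.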

Each number is a percent effect as filed. The controls that fix the scale are not given in the record; negative values are as filed. This is an unselected part of the compounds tested. Two or more numbers in one place are separate tests of the same structure; such repeats can differ widely.

{"compound": "CN1CC2(CCCN(Cc3ccccc3OCC(=O)O)C2)OC1=O", "stereo": "stereo not drawn", "Mtb cholesterol medium": 0.2598, "Mtb glucose medium": 13.04}
{"compound": "Cc1nc(C(=O)N2CCN(S(=O)(=O)N(C)C)CC2)c(-c2ccccc2)s1", "Mtb cholesterol medium": -6.261, "Mtb glucose medium": -10.48}
{"compound": "CCN(C)C1COC2(CCN(C(=O)c3cccc(Cl)c3)CC2)C1.O=C(O)C(F)(F)F", "stereo": "stereo not drawn", "Mtb cholesterol medium": 25.09, "Mtb glucose medium": -18.24}
{"compound": "CS(=O)(=O)N1CCN(c2ccc(Nc3ccccn3)nn2)CC1", "Mtb cholesterol medium": -12.71, "Mtb glucose medium": "-16.84 and 1.511"}
{"compound": "Cc1nnc(-c2cccc(C#N)c2)n1C1CCN(C2CC2)C1=O", "stereo": "stereo not drawn", "Mtb cholesterol medium": 7.987, "Mtb glucose medium": -3.996}
{"compound": "CC(C)c1nc(C2CCCN2Cc2ccn(C)c(=O)c2)no1", "stereo": "stereo not drawn", "Mtb cholesterol medium": -17.34, "Mtb glucose medium": -25.33}
{"compound": "CC(C)C(=O)N1CCN(Cc2csc(-c3ncccn3)n2)CC1", "Mtb cholesterol medium": 2.913, "Mtb glucose medium": "0.4652 and 5.873"}
{"compound": "CCC1CN(CC(=O)N2CCC2)CCN1CCOC", "stereo": "stereo not drawn", "Mtb cholesterol medium": 3.801, "Mtb glucose medium": 11.73}
{"compound": "O=C(NCCOc1ccc2c(c1)OCO2)C1CC(=O)N(C2CC2)C1", "stereo": "stereo not drawn", "Mtb cholesterol medium": -10.34, "Mtb glucose medium": -1.209}
{"compound": "Cc1ccc(-c2cnn(CC(=O)NC(C)C)c2)cc1", "Mtb cholesterol medium": 11.56, "Mtb glucose medium": -2.27}
{"compound": "NC(=O)C1CCN(CCc2ccc(NCc3ccsc3)cc2)CC1", "Mtb cholesterol medium": 3.882, "Mtb glucose medium": "2.552 and 17.98"}
{"compound": "Cc1cccc(NC(=O)c2cccc(OCc3nnnn3C)c2)n1", "Mtb cholesterol medium": -25.4, "Mtb glucose medium": -12.59}
{"compound": "CC(c1nc(C2CC2)no1)N1CCN(CCc2ccncc2)CC1", "stereo": "stereo not drawn", "Mtb cholesterol medium": -4.215, "Mtb glucose medium": "-6.88 and 11.09"}
{"compound": "c1cnc2c(c1)nc1n2[C@@H](CNC2CCOCC2)COC1", "Mtb cholesterol medium": 16.16, "Mtb glucose medium": "38.85 and 11.97"}
{"compound": "Cc1nc(C)n(CC2CN(c3ncccc3C#N)CCO2)n1", "stereo": "stereo not drawn", "Mtb cholesterol medium": 6.18, "Mtb glucose medium": 4.21}
{"compound": "CS(=O)(=O)NC1CC2(CCN(CC3CC3)CC2)Oc2ccccc21.O=C(O)C(F)(F)F", "stereo": "stereo not drawn", "Mtb cholesterol medium": 5.159, "Mtb glucose medium": 1.051}
{"compound": "COc1ccc2c(c1)OCC(CNc1cc(N)nc(SC)n1)C2", "stereo": "stereo not drawn", "Mtb cholesterol medium": 31.98, "Mtb glucose medium": 34.45}
{"compound": "CCOC(C)c1nc(CN2CCN(Cc3cccnc3)CC2)cs1", "stereo": "stereo not drawn", "Mtb cholesterol medium": "-3.314 and 3.318", "Mtb glucose medium": 7.587}
{"compound": "COc1ccc(OC)c(Nc2nc3c(C)nn(C)c3c(=O)n2C)c1", "Mtb cholesterol medium": 0.03921, "Mtb glucose medium": 35.46}
{"compound": "Cc1nc(C2(NCC(=O)NC(=O)NCc3cccs3)CCCCC2)no1", "Mtb cholesterol medium": -3.457, "Mtb glucose medium": "25.1 and -1.542"}
{"compound": "COc1ccccc1CN(Cc1cccnc1)Cc1nccs1", "Mtb cholesterol medium": -8.928, "Mtb glucose medium": -4.638}
{"compound": "CN1CCC(NC(=O)NCCNc2ccccn2)CC1", "Mtb cholesterol medium": -5.528, "Mtb glucose medium": -0.8931}
{"compound": "Fc1ccc(-c2cnc(CN3CCCC3Cn3cccn3)o2)cc1", "stereo": "stereo not drawn", "Mtb cholesterol medium": -5.629, "Mtb glucose medium": -13.75}
{"compound": "CCN(CC)CC1CN(Cc2ccc(C)s2)Cc2nccn2C1.O=C(O)C(F)(F)F.O=C(O)C(F)(F)F", "stereo": "stereo not drawn", "Mtb cholesterol medium": 4.017, "Mtb glucose medium": "2.763 and 15.16"}
{"compound": "CN(C)[C@@H]1CCN(C(=O)Cc2cccs2)[C@H]1Cc1cnn(C)c1.O=C(O)C(F)(F)F", "Mtb cholesterol medium": "7.25 and -8.436", "Mtb glucose medium": 5.555}
{"compound": "CCOCC(=O)N1C[C@@H](O)[C@H](NC(C)=O)C1", "Mtb cholesterol medium": -9.43, "Mtb glucose medium": -20.48}
{"compound": "CS(=O)(=O)N1CCc2sc(C(=O)NCc3ccncc3)cc21", "Mtb cholesterol medium": -2.385, "Mtb glucose medium": 20.63}
{"compound": "O=C(Cc1ccccn1)N1CCN(CC2CC2)c2ncccc2C1", "Mtb cholesterol medium": -7.122, "Mtb glucose medium": 1.484}
{"compound": "O=C(O)C(F)(F)F.[H][C@@]12CCN(C(=O)c3ncccn3)C[C@]1(COc1ccccn1)CCO2", "Mtb cholesterol medium": "2.944 and -22.23", "Mtb glucose medium": "0.2723 and -25.06"}

Data taken from ChEMBL document CHEMBL3988442, “University of Dundee, Small-Polar-MMV Screening Library” (2021).